# In PubChem BioAssay AID256 (DTP/NCI, 2004):
# The list shows only some results of the screen, not a fair sample: it is rich in T/C values a quarter to a half above the control, in often repeated tests (any T/C) and in doses without a T/C. Other doses and runs of a compound stand elsewhere. T/C: endpoint of the treated group in % of that of the vehicle group. Some entries give survivors of the animals treated and no T/C: the source files T/C as zero there, which appears to mark a toxic dose or a test without result, not a measured value. Some survivor counts are full or nearly so, which does not show that the dose was tolerated: the source hardly ever lists a survival T/C far under the control, and the zero likely stands for such cases as well. Survivors were counted at the toxicity check, usually on the fifth day, unless a day is given; later deaths do not show. Schedule codes are those of the source, read here as Q, the interval in days (D) or hours (H), X, the number of doses. Some entries hold several experiments; the values are given in rising order. For survival time, this PubChem deposit counts one and a half times the control or more as active, and values a quarter to a half above the control carry no call in these data; other NCI protocols may use other cut-offs. Brackets with × give the number of equal values in this list. Some T/C values carry the count of animals alive at the toxicity check (mostly the fifth day); where none is given, no animal had died by that day.
# Test system: CD2F1 mice, L1210 leukemia ip, survival T/C
# Assay: NCI In Vivo Anticancer Drug Screen. Data for tumor model L1210 Leukemia (intraperitoneal) in CD2F1 (CDF1) mice
# Settings: higher T/C = longer survival
# Experimental: The antitumor activity of compounds was measured in mice bearing transplantable tumors. Survival or tumor size were measured and the results are expressed as the measurement made in the treated group (T) divided by the measurement made in the vehicle treated control group (C). The tumor model used in this assay is L1210 Leukemia (intraperitoneal) in CD2F1 (CDF1) mice
# [1] = T/C endpoint: mean survival time, dose: 400.0 mg/kg/injection, schedule: Q04DX003 (ip), vehicle: saline with Tween-80
# [2] = T/C endpoint: mean survival time, dose: 200.0 mg/kg/injection, schedule: Q01DX009 (ip), vehicle: saline
# [3] = T/C endpoint: mean survival time, dose: 100.0 mg/kg/injection, schedule: Q01DX009 (ip), vehicle: saline with Tween-80
# [4] = T/C endpoint: mean survival time, dose: 200.0 mg/kg/injection, schedule: Q01DX009 (ip), vehicle: saline with Tween-80
# [5] = T/C endpoint: mean survival time, dose: 400.0 mg/kg/injection, schedule: Q01DX009 (ip), vehicle: saline with Tween-80
# [6] = T/C endpoint: mean survival time, dose: 100.0 mg/kg/injection, schedule: Q04DX003 (ip), vehicle: saline with Tween-80
# [7] = T/C endpoint: mean survival time, dose: 200.0 mg/kg/injection, schedule: Q04DX003 (ip), vehicle: saline with Tween-80
# [8] = T/C endpoint: mean survival time, dose: 300.0 mg/kg/injection, schedule: Q01DX001 (ip), vehicle: other
# [9] = T/C endpoint: mean survival time, dose: 200.0 mg/kg/injection, schedule: Q01DX009 (ip), vehicle: Klucel (hydroxypropylcellulose) (HPC)
structure (smiles),measurement,setting,value
NNc1ccnc2[nH]ncc12,survivor count,"T/C endpoint: mean survival time, dose: 50.0 mg/kg/injection, schedule: Q01DX005 (ip), vehicle: saline",3 of 6
same,survivor count,"T/C endpoint: mean survival time, dose: 100.0 mg/kg/injection, schedule: Q01DX005 (ip), vehicle: saline",0 of 6
same,survivor count,"T/C endpoint: mean survival time, dose: 200.0 mg/kg/injection, schedule: Q01DX005 (ip), vehicle: saline",0 of 6
COc1ccc(NC(=O)Nc2ccccc2C)c(OC)c1,survivor count,"T/C endpoint: mean survival time, dose: 100.0 mg/kg/injection, schedule: Q04DX002 (ip), vehicle: saline with Tween-80",3 of 3
O=C1C(Br)CCC1C(O)(C(F)(F)F)C(F)(F)F (centres undefined),survivor count,[1],0 of 6
CCN(CC)CCSC(=O)c1ccccc1,survivor count,[2],0 of 3
[Cl][Pt+2]([Cl])([Cl])[Cl].[NH-]CC1(C[NH-])CCCC1,survivor count,"T/C endpoint: median survival time, dose: 25.0 mg/kg/injection, schedule: Q04DX003 (ip), vehicle: saline",5 of 6
same,survivor count,"T/C endpoint: median survival time, dose: 50.0 mg/kg/injection, schedule: Q04DX003 (ip), vehicle: saline",0 of 6 and 6 of 6
same,survivor count,"T/C endpoint: median survival time, dose: 100.0 mg/kg/injection, schedule: Q04DX003 (ip), vehicle: saline",0 of 6
same,survivor count,"T/C endpoint: median survival time, dose: 200.0 mg/kg/injection, schedule: Q04DX003 (ip), vehicle: saline",0 of 6
O=C(/C=C/c1ccccc1)NC(=S)NCc1ccccc1Cl,T/C,[3],"87, 89 [2 of 3 alive], 92, 100 % of control"
same,T/C,[4],"88, 95, 97, 100 % of control"
same,T/C,[5],"90, 97, 100 % of control"
same,survivor count,[5],1 of 3
CC1Oc2cc3c(-c4c(O)cc(O)c5c(O)c6c(cc45)OC(C)C(C)C6=O)c(O)cc(O)c3c(O)c2C(=O)C1C (centres undefined),survivor count,"T/C endpoint: median survival time, dose: 20.0 mg/kg/injection, schedule: Q01DX009 (ip), vehicle: suspension in saline",3 of 6
same,survivor count,"T/C endpoint: median survival time, dose: 40.0 mg/kg/injection, schedule: Q01DX009 (ip), vehicle: suspension in saline",1 of 6
same,survivor count,"T/C endpoint: median survival time, dose: 80.0 mg/kg/injection, schedule: Q01DX009 (ip), vehicle: suspension in saline",0 of 6
COc1cc2c(c(OC)c1OC)-c1ccc(SC)c(=O)cc1C(N=C(NC1OCC(OC(C)=O)C(OC(C)=O)C1OC(C)=O)SN(NC(=O)OCc1ccccc1)C(=O)OCc1ccccc1)CC2 (centres undefined),survivor count,"T/C endpoint: mean survival time, dose: 200.0 mg/kg/injection, schedule: Q01DX001 (ip), vehicle: saline with Tween-80",1 of 3
same,survivor count,"T/C endpoint: mean survival time, dose: 400.0 mg/kg/injection, schedule: Q01DX001 (ip), vehicle: saline with Tween-80",1 of 3
Nc1cc2c3c(cccc3c1)C(=O)N(CCN1CCCC1)C2=O,T/C,"T/C endpoint: mean survival time, dose: 50.0 mg/kg/injection, schedule: Q01DX009 (ip), vehicle: saline with Tween-80",131 % of control (2×)
same,T/C,[3],125 and 138 % of control [8 of 10 alive]
O=C(COc1ccccc1)NC(=S)Nc1nccs1,survivor count,[6],3 of 6
same,survivor count,[7],2 of 6
same,survivor count,[5],1 of 3
same,survivor count,"T/C endpoint: mean survival time, dose: 400.0 mg/kg/injection, schedule: Q04DX002 (ip), vehicle: saline with Tween-80",0 of 3
same,survivor count,[1],1 of 6
C/C(=C\Cl)CN(C)C,survivor count,"T/C endpoint: mean survival time, dose: 200.0 mg/kg/injection, schedule: Q01DX009 (ip), vehicle: acetone",1 of 6
FC(F)(F)c1[nH]nc(-c2ccc(Cl)cc2)c1N=NN1CCOCC1,survivor count,[8],3 of 6
COc1cc2c(cc1OC)C1CCN3C(=O)CCC3[N+]1(C)CC2 (centres undefined),survivor count,[2],6 of 6
same,survivor count,"T/C endpoint: mean survival time, dose: 400.0 mg/kg/injection, schedule: Q04DX003 (ip), vehicle: saline",3 of 6
OC12C3CC4C5C3C3(Cl)C(Cl)(Cl)C5(Cl)C(Cl)(C41)C23Cl (centres undefined),survivor count,"T/C endpoint: mean survival time, dose: 9.5 mg/kg/injection, schedule: Q01DX001 (ip), vehicle: other",2 of 6
same,survivor count,"T/C endpoint: mean survival time, dose: 19.0 mg/kg/injection, schedule: Q01DX001 (ip), vehicle: other",0 of 6
same,survivor count,"T/C endpoint: mean survival time, dose: 38.0 mg/kg/injection, schedule: Q01DX001 (ip), vehicle: other",0 of 6
same,survivor count,"T/C endpoint: mean survival time, dose: 75.0 mg/kg/injection, schedule: Q01DX001 (ip), vehicle: other",0 of 6
same,survivor count,"T/C endpoint: mean survival time, dose: 150.0 mg/kg/injection, schedule: Q01DX001 (ip), vehicle: other",0 of 6
same,survivor count,[8],0 of 6
NC(=O)NN=C1CCC(CC2CCCCC2)CC1 (centres undefined),survivor count,[7],3 of 6
same,survivor count,[1],0 of 6
CCO/N=C(\C)CSC1=NCCN1,survivor count,"T/C endpoint: mean survival time, dose: 300.0 mg/kg/injection, schedule: Q04DX003 (ip), vehicle: saline",1 of 6
C=Cc1cc(OC)c2c(c1)c(=O)oc1c2cc(OC)c2c(O)ccc(C3OC(C)C(O)C(C)(O)C3O)c21 (centres undefined),T/C,"T/C endpoint: median survival time, dose: 20.0 mg/kg/injection, schedule: Q01DX009 (ip), vehicle: other",125 % of control
same,T/C,"T/C endpoint: median survival time, dose: 40.0 mg/kg/injection, schedule: Q01DX009 (ip), vehicle: DMSO",131 and 133 % of control
same,T/C,"T/C endpoint: median survival time, dose: 40.0 mg/kg/injection, schedule: Q01DX009 (ip), vehicle: other",142 % of control
same,T/C,"T/C endpoint: median survival time, dose: 80.0 mg/kg/injection, schedule: Q01DX009 (ip), vehicle: DMSO",144 % of control
same,T/C,"T/C endpoint: median survival time, dose: 80.0 mg/kg/injection, schedule: Q01DX009 (ip), vehicle: other",144 % of control
CC12CCC3c4ccc(O)cc4CCC3C1CCC2S (centres undefined),survivor count,[1],5 of 6
CCOC(=O)/C=C/CP(=O)(OCC)OCC,survivor count,"T/C endpoint: mean survival time, dose: 100.0 mg/kg/injection, schedule: Q01DX001 (ip), vehicle: carboxymethylcellulose (CMC)",0 of 4
same,survivor count,"T/C endpoint: mean survival time, dose: 200.0 mg/kg/injection, schedule: Q01DX001 (ip), vehicle: carboxymethylcellulose (CMC)",0 of 4
same,survivor count,"T/C endpoint: mean survival time, dose: 400.0 mg/kg/injection, schedule: Q01DX001 (ip), vehicle: carboxymethylcellulose (CMC)",0 of 4
OCNC(=S)c1c(Cl)cccc1Cl,survivor count,[5],3 of 6
COC(=O)C(C(=O)OC)C(Br)(C(=O)OC)C(=O)OC,survivor count,[5],6 of 6
CS(=O)(=O)c1cc([N+](=O)[O-])cc([N+](=O)[O-])c1Cl,survivor count,"T/C endpoint: mean survival time, dose: 20.0 mg/kg/injection, schedule: Q04DX003 (ip), vehicle: saline with Tween-80",2 of 6
same,survivor count,[6],0 of 6
same,survivor count,[7],0 of 6
same,survivor count,[1],0 of 6
O=C1C=C(Nc2nc(O)cc(=O)[nH]2)c2ccccc2C1=O,survivor count,[9],3 of 6
same,survivor count,"T/C endpoint: mean survival time, dose: 400.0 mg/kg/injection, schedule: Q01DX009 (ip), vehicle: Klucel (hydroxypropylcellulose) (HPC)",0 of 6
Cc1cn2ccccc2c[n+]1=O,survivor count,[6],0 of 6
same,survivor count,[7],0 of 6
same,survivor count,[1],0 of 6
Nc1ccccc1-c1ccccc1N,survivor count,"T/C endpoint: mean survival time, dose: 200.0 mg/kg/injection, schedule: Q04DX002 (ip), vehicle: saline",3 of 3
same,survivor count,"T/C endpoint: mean survival time, dose: 400.0 mg/kg/injection, schedule: Q04DX002 (ip), vehicle: saline",0 of 3
COc1ccc(OC)c(NC(=O)NNC(=O)c2ccc(Cl)cc2)c1,survivor count,[4],5 of 6
same,survivor count,[5],5 of 6
COc1cc2cc[n+](C)cc2cc1OC,survivor count,"T/C endpoint: mean survival time, dose: 200.0 mg/kg/injection, schedule: Q01DX009 (ip), vehicle: water",0 of 6
same,survivor count,"T/C endpoint: mean survival time, dose: 400.0 mg/kg/injection, schedule: Q01DX009 (ip), vehicle: water",0 of 6
Cc1ccc(NC(=O)CCl)cc1Cl,survivor count,[4],3 of 6
same,survivor count,[1],2 of 6
C1CCC2C(C1)NC1CCCCC12 (centres undefined),survivor count,"T/C endpoint: mean survival time, dose: 100.0 mg/kg/injection, schedule: Q01DX009 (ip), vehicle: saline",0 of 6
O=C(NCCCCCCCCNC(=O)N1CC1)N1CC1,survivor count,"T/C endpoint: mean survival time, dose: 17.0 mg/kg/injection, schedule: Q01DX001 (ip), vehicle: carboxymethylcellulose (CMC)",1 of 6
same,survivor count,"T/C endpoint: mean survival time, dose: 25.5 mg/kg/injection, schedule: Q01DX001 (ip), vehicle: carboxymethylcellulose (CMC)",1 of 6
O=S1(=O)C=CCCC=C1,survivor count,[9],0 of 6
O=C1/C(=C/C2CCC3CCCCC3[N-]2)N2CCC1CC2.[Cl][Co][Cl] (centres undefined),survivor count,"T/C endpoint: mean survival time, dose: 75.0 mg/kg/injection, schedule: Q01DX001 (ip), vehicle: saline",2 of 6
same,survivor count,"T/C endpoint: mean survival time, dose: 150.0 mg/kg/injection, schedule: Q01DX001 (ip), vehicle: saline",0 of 6
same,survivor count,"T/C endpoint: mean survival time, dose: 300.0 mg/kg/injection, schedule: Q01DX001 (ip), vehicle: saline",1 of 6
